Patent US9732119B2, “Immunomodulators” (BRISTOL-MYERS SQUIBB COMPANY, priority 2014, dated 2017)
At least one compound was matched to its structure with a doubt left. Positions of bridges follow the written chain, without caps; N, C: chain ends. Non-standard residues stand in square brackets, D forms with d. Residues, ends and D or L forms follow the SMILES beside them. Trp(1-CH2COOH) = N[C@@H](Cc1cn(CC(=O)O)c2ccccc12)C(=O)O; Phe(4-Cl) = N[C@@H](Cc1ccc(Cl)cc1)C(=O)O; Hyp = O=C(O)[C@@H]1C[C@@H](O)CN1; Aad = N[C@@H](CCCC(=O)O)C(=O)O; NMeNle = CCCC[C@H](NC)C(=O)O; Pip = O=C(O)[C@@H]1CCCCN1; Dab = NCC[C@H](N)C(=O)O; Dap = NC[C@H](N)C(=O)O

Protein sequences, listed by entry. Tags and fused reporters are not part of them. Chains listed by the source or under a name are the forms on record and can include a tag or linker.
UniProt Q9NZQ7, with tags, fused parts or gaps: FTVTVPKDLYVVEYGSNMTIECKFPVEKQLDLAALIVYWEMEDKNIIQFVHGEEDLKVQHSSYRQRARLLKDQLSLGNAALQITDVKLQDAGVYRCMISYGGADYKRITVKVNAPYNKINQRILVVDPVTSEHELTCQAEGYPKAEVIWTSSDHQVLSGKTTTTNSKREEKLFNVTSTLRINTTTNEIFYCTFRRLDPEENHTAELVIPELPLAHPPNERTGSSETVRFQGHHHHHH

Target: T1, PD-1-Ig binding to PD-L1-TVMV-His (PD-L1-His) (Homo sapiens, UniProt Q9NZQ7)
T1 construct: hPDL1(19-239)-TVMV-His; made in house; host or cells: HEK293T cells
Assay: PD-1/PD-L1 Homogenous Time-Resolved Fluorescence (HTRF) binding assay
Conditions: PD-1-Ig (20 nM) / PD-L1-His (10 nM); range classes
Text: The ability of the macrocyclic peptides of the present disclosure to bind to PD-L1 was investigated using a PD-1/PD-L1 Homogenous Time-Resolved Fluorescence (HTRF) binding assay.
Homogenous Time-Resolved Fluorescence (HTRF) Assays of Binding of Soluble PD-1 to Soluble PD-L1. Soluble PD-1 and soluble PD-L1 refers to proteins with carboxyl-end truncations that remove the transmembrane-spanning regions and are fused to heterologous sequences, specifically the Fc portion of the human immunoglobuling G sequence (Ig) or the hexahistidine epitope tag (His). All binding studies were performed in an HTRF assay buffer consisting of dPBS supplemented with 0.1% (w/v) bovine serum albumin and 0.05% (v/v) Tween-20. For the PD-1-Ig/PD-L1-His binding assay, inhibitors were pre-incubated with PD-L1-His (10 nM final) for 15 m in 4 μl of assay buffer, followed by addition of PD-1-Ig (20 nM final) in 1 μl of assay buffer and further incubation for 15 m. PD-L1 fusion proteins from either human, cynomologous macaques, mouse, or other species were used. HTRF detection was achieved using europium crypate-labeled anti-Ig monoclonal antibody (1 nM final) and allophycocyanin (APC) labeled anti-His monoclonal antibody (20 nM final). Antibodies were diluted in HTRF detection buffer and 5 μl was dispensed on top of binding reaction. […]

Question: How did the IC50 turn out when `CCCC[C@H]1C(=O)N(C)[C@@H](CCCC)C(=O)N[C@@H](CC(C)C)C(=O)N[C@H](C(=O)NCC(N)=O)COCC(=O)N[C@@H](Cc2ccc(O)cc2)C(=O)N(C)[C@@H](C)C(=O)N[C@@H](CC(N)=O)C(=O)N2CCC[C@H]2C(=O)N[C@@H](CN)C(=O)N[C@@H](CC(C)C)C(=O)N2C[C@H](O)C[C@H]2C(=O)N[C@@H](Cc2c[nH]c3ccccc23)C(=O)N[C@@H](CCN)C(=O)N[C@@H](Cc2c[nH]c3ccccc23)C(=O)N1C` [Example 10504] was run?
Answer: 10 to 99 nM

Question: `CCCC[C@H]1C(=O)N(C)[C@@H](CCCC)C(=O)N[C@@H](CC(C)C)C(=O)N[C@H](C(N)=O)CCCC(=O)N[C@@H](Cc2ccc(Cl)cc2)C(=O)N2CCCC[C@H]2C(=O)N[C@@H](CC(N)=O)C(=O)N2CCC[C@H]2C(=O)N[C@@H](CN)C(=O)N[C@@H](CCC(=O)O)C(=O)N2C[C@H](O)C[C@H]2C(=O)N[C@@H](Cc2c[nH]c3ccccc23)C(=O)N[C@@H](CCN)C(=O)N[C@@H](Cc2cn(CC(=O)O)c3ccccc23)C(=O)N1C` [Example 10539] ([Phe(4-Cl)][Pip]NP[Dap]E[Hyp]W[Dab][Trp(1-CH2COOH)][NMeNle][NMeNle]L[Aad]-NH2; lactam N-14) was tested. Which IC50 did it give?
Answer: 1 to 9.9 nM
